A short description of the test: qHTS Assay for Modulators of Lamin A Splicing. Particulars: HeLa LMNA splicing GFP/RFP minigene ratio, 48 h. In a few lines: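 S3 HeLa stable clones carrying a lamin A-EGFP splicing minigene plus DsRed2 were seeded at 600 cells/well in Opti-MEM with 2% FBS, pin-dosed and incubated 48 h at 37°C. Acumen cytometry (488 nm) gave the GFP/RFP total-intensity ratio.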
[1] abbreviates: measured here: GFP splicing reporter channel.
The mark [2] stands for this setting: measured here: RFP viability control channel.

Some of the results follow. These are further read-outs of the screen, such as a control signal, another cell line or another target. No call is given for them. The list favours compounds with an active or inconclusive main result. Potencies come from curve fits of mixed quality, noted in brackets.

A word on the AC50: it is the concentration giving half of the maximal activity seen. In the case of `CC1CCC(C(C)C)C(OC(=O)CSc2n[nH]c(=O)[nH]c2=O)C1` (configuration not stated), the AC50 runs as follows: under setting [1], 8.91 µM [rising, partial curve]; under setting [2], 11.2 µM [rising, partial curve, poor fit].

On to `C/C(=N/NC(=O)c1cc(C(C)C)[nH]n1)c1cccs1`, for which the half-maximal activity concentration (AC50) was 5.62 µM [falling, partial curve] under setting [1] and 6.31 µM [falling, partial curve, poor fit] under setting [2].

Consider `O=C1CN(C(=O)CSc2nc3ccccc3c(=O)n2Cc2ccc(F)cc2)c2ccccc2N1`, for which, under setting [2], the AC50 was 31.6 µM [rising, single point].

In the case of `OC1C=CSc2nc3ccccc3n21` (configuration not stated), the AC50 runs as follows: under setting [1], 35.5 µM [falling, single point]; under setting [2], 35.5 µM [falling, single point].

Regarding `Cc1nnc(SCC(=O)Nc2nc(C(C)(C)C)cs2)s1`, under setting [2], the AC50 was 35.5 µM [rising, single point].

As for `CCOC(=O)N1CCC(N(CCOC)C(=S)Nc2cccc(SC)c2)CC1`, the half-maximal activity concentration (AC50) reads like this: under setting [1], 35.5 µM [falling, single point]; under setting [2], 35.5 µM [falling, single point].

Consider `O=C(CCCNS(=O)(=O)c1cccs1)N1CCN(c2ccc(F)cc2)CC1`, for which the AC50 under setting [2] is 11.2 µM [rising, partial curve, poor fit].

Turning to `COc1ccc(Oc2coc3cc(OC(=O)N4CCOCC4)ccc3c2=O)cc1`, the AC50 under setting [2] is 28.2 µM [rising, single point].

With `COc1ccc(NC(=O)Cn2nc(C(F)(F)F)c3c2CCCC3)cc1OC`, the AC50 is 11.2 µM [rising, partial curve, poor fit] under setting [1] and 12.6 µM [rising, partial curve] under setting [2].

As to `C/C(=N\Nc1nc2ccccc2s1)c1cccs1`, the AC50 under setting [2] is 14.1 µM [rising, partial curve, poor fit].

In the case of `O=C(Nc1ccc(S(=O)(=O)NCc2ccco2)cc1)C1CCCCC1`, the AC50 under setting [1] was 0.0891 µM [rising, full curve, poor fit].

As to `COc1ccc(NS(=O)(=O)c2cc(S(C)(=O)=O)ccc2C)cc1`, the AC50 under setting [2] is 2.82 µM [rising, single point].

In the case of `Cc1ccc(CCNC(=O)CCS(=O)(=O)c2cc3c(cc2Cl)NC(=O)CO3)cc1`, the AC50 under setting [1] is 25.1 µM [falling, partial curve, poor fit] and the half-maximal activity concentration (AC50) under setting [2] is 35.5 µM [falling, partial curve, poor fit].

`CC(C)NC(=O)CN1C(=O)c2cccnc2Sc2ccccc21`: the AC50 is 0.00891 µM [falling, full curve, poor fit] under setting [1] and 0.0158 µM [falling, full curve] under setting [2].

Consider `C/C(=N\NS(=O)(=O)c1ccc(C)cc1)c1cc2ccccc2oc1=O`, for which the AC50 under setting [2] was 5.01 µM [rising, single point].

In the case of `COc1ccccc1NC(=O)COc1ccccc1C(=O)c1cnn(-c2ccccc2)c1`, under setting [2], the concentration at half-maximal activity (AC50) was 11.2 µM [rising, partial curve, poor fit].

As for `COC(=O)c1c(-c2ccc(Cl)cc2)noc1N1CCN(c2ccc(F)cc2)CC1`, the AC50 was 3.55 µM [falling, single point] under setting [1] and 7.94 µM [falling, partial curve] under setting [2].

Consider `CCOc1ccc(CNC(=O)CCS(=O)(=O)c2ccc3c(c2)oc(=O)n3C)cc1`, for which the AC50 under setting [2] is 0.316 µM [falling, partial curve, poor fit].

With `CC(C)CN(C[C@@H](O)[C@H](Cc1ccccc1)NC(=O)O[C@H]1CCOC1)S(=O)(=O)c1ccc(N)cc1`, the AC50 under setting [1] is 0.562 µM [rising, partial curve, poor fit] and the AC50 under setting [2] was 0.631 µM [rising, full curve, poor fit].

Take `C=C1CC2C3C=C(C)C4=CC(=O)CCC4(C)C3CCC2(C)[C@@]1(OC(C)=O)C(C)=O` (some centres not stated): the concentration at half-maximal activity (AC50) under setting [2] is 1.58 µM [rising, partial curve].

For the compound `c1ccc2c(c1)[nH]c1c(N3CCN(C4CCCCC4)CC3)ncnc12`, the half-maximal activity concentration (AC50) under setting [2] is 35.5 µM [rising, single point].

For the compound `N#C/C(=C\c1ccccc1)C(=O)NCCN1CCOCC1`, the AC50 under setting [2] is 0.447 µM [falling, full curve, poor fit].

Consider `COc1cc(Cn2c(-c3nonc3N)nc3ccccc32)ccc1C`, for which, under setting [2], the AC50 was 0.01 µM [rising, full curve, poor fit].

As for `COc1ccc(C(=O)NC(=S)Nc2ccccc2N2CCCCC2)cc1[N+](=O)[O-]`, under setting [2], the AC50 is 12.6 µM [rising, partial curve, poor fit].

In the case of `C[C@@H]1C[C@@H]2[C@H]3CCC4=CC(=O)C=C[C@]4(C)[C@]3(F)[C@@H](O)C[C@]2(C)[C@@]1(O)C(=O)CO`, under setting [1], the concentration at half-maximal activity (AC50) is 14.1 µM [falling, single point].

As for `Cc1cccnc1NC(=O)C1c2ccccc2Oc2ccccc21`, the concentration at half-maximal activity (AC50) under setting [2] was 0.00708 µM [falling, full curve, poor fit].

On to `CCOC(=O)c1c(C)n(C)c2ccc(OC(=O)c3ccco3)cc12`, for which the concentration at half-maximal activity (AC50) under setting [1] was 0.1 µM [rising, full curve, poor fit].

Consider `Cc1coc2cc3oc(=O)c(CCC(=O)O)c(C)c3cc12`, for which the AC50 is, setting by setting: under setting [1], 0.0398 µM [falling, full curve]; under setting [2], 0.0398 µM [falling, full curve, poor fit].

In the case of `CC1CCCCN1S(=O)(=O)c1ccc(C(=O)Nc2nnc(-c3ccccc3Cl)o2)cc1` (configuration not stated), under setting [2], the concentration at half-maximal activity (AC50) is 1.58 µM [rising, full curve].

For the compound `Cc1ccc(NC(=O)CS(=O)CC(=O)N(CC(=O)NC2CCCC2)c2ccc3c(c2)OCCO3)cc1` (configuration not stated), the AC50 under setting [2] is 1.78 µM [falling, single point].

For `CN(CCOc1ccccc1)c1ccc(S(=O)(=O)N2CCCCC2)cn1`, the half-maximal activity concentration (AC50) is, setting by setting: under setting [1], 31.6 µM [rising, single point]; under setting [2], 35.5 µM [rising, single point].

As for `Cc1cc(C)nc(N/N=C/c2ccc(N3CCOCC3)cc2)n1`, the AC50 was 0.00447 µM [falling, full curve, poor fit] under setting [1] and 0.00316 µM [falling, full curve, poor fit] under setting [2].

In the case of `O=C(O)C1=CCNCC1`, the concentration at half-maximal activity (AC50) is 0.00501 µM [falling, full curve, poor fit] under setting [1] and 6.31 µM [falling, partial curve, poor fit] under setting [2].

For `Cc1ccccc1OCC(=O)Nc1ccc2nc(SCC(N)=O)sc2c1`, the AC50 under setting [2] was 4.47 µM [falling, partial curve, poor fit].

These data come from PubChem BioAssay AID1487 (National Center for Advancing Translational Sciences (NCATS), 2009).
